Results taken from article PMC11443517 (2024).

By UniProt entry, the sequences of proteins in these tests, tags left out.
UniProt Q15843, whole entry: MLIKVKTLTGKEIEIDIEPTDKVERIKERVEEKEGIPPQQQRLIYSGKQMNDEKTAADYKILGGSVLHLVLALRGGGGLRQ

Target: precursor Nedd8 (UniProt Q15843 1-81)
Assay: FRET

B1: eDEN1-FRET-D10N (designed binder)
chain: MPSSHHHHHHSSGLVPRGSHMDPVVLSYMNSLLRQSDVSLLDPPSWLNDHIIGFAFEYFANSQFHDCSDHVSFISPEVTQFIKCTSNPGGSGGMVSKGEELFTGVVPILVELDGDVNGHKFSVSGEGEGDATYGKLTLKFICTTGKLPVPWPTLVTTLSWGVQCFARYPDHMKQHDFFKSAMPEGYVQERTIFFKDDGNYKTRAEVKFEGDTLVNRIELKGIDFKEDGNILGHKLEYNYFSDNVYITADKQKNGIKANFKIRHNIEDGGSTGFEIPDDVPLPAGWEMAKTSSGQRYFKNHIDQTTTWQDPRKAGGGGVQLADHYQQNTPIGDGPVLLPDNHYLSTQSKLSKDPNEKRDHMVLLEFVTAAGITLGMGGSGGAEIAMFLEPLDLPNKRVVFLAINDNSNQAAGGTHWSLLVYLQDKNSFFHYDSHSRSNSVHAKQVAEKLEAFLGRKGDKLAFVEEKAPAQQNDYDAGMYVICNTEALCQNFFRQQTESLLQLLTPAYITKKRGEWKDLITTLAKTGMVSKGEELFTGVVPILVELDGDVNGHKFSVSGEGEGDATYGKLTLKFICTTGKLPVPWPTLVTTFGYGLMCFARYPDHMKQHDFFKSAMPEGYVQERTIFFKDDGNYKTRAEVKFEGDTLVNRIELKGIDFKEDGNILGHKLEYNYNSHNVYIMADKQKNGIKVNFKIRHNIEDGSPLPPYTTGGSGSQSGSGTGSESGSTGGSVQLADHYQQNTPIGDGPVLLPDNHYLSYQSKLSKDPNEKRDHMVLLEFVTAAGITLGMDELYK
For B1, which Kd is on record?
The Kd was 144 µM.
